Data published in US20140234339A1.
No constants are given. Whether binding was seen depends on the method and setting. Some entries that bind do so weakly or less than the wild type.

Target: T1, IsaA (immunodominant structure IsaA of Staphylococcus aureus) (Staphylococcus aureus) (UniProt P99160)
T1 sequence (looked up): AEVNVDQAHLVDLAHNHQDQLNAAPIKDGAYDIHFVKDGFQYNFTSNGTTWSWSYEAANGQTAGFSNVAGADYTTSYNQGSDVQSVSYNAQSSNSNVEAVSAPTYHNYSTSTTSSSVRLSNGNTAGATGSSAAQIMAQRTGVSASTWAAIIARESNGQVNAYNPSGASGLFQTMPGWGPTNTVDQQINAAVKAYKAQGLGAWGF
Test: bacterial cell ELISA: plates coated with whole S. aureus cells (5x10^7 per well), antibody diluted 1:2000, HRP-linked secondary antibody, OD 450 nm; IsaA on the cells, with the deletion strain MA12isaA- as control

B1: antibody UK66-2 (antibody, V domains shown)
VH: EVQLLESGGGLVQPGGSLRLSCAASGFTFSNYYMSWVRQAPGKGLEWVSDINGNGGSTYYPDTVKGRFTISRDNSKNTLYLQMNSLRAEDTAVYYCVRRGGYYALDYWGQGTTVTVSS
VL: DVVMTQTPLSLSVTPGQPASISCRSSQSLVHINGNTYLHWYLQKPGQSPQLLIYRVSNRFSGVPDRFSGSGSGTDFTLKISRVEAEDVGVYYCSQSTHVPWTFGGGTKLELKR
Q: How did the binding turn out when B1 was run?
A: Its binding is “binds”.
